The source of these data is publication PMC7694386.

Protein sequences, listed by entry. Tags and fused reporters are not part of them.
UniProt O95817: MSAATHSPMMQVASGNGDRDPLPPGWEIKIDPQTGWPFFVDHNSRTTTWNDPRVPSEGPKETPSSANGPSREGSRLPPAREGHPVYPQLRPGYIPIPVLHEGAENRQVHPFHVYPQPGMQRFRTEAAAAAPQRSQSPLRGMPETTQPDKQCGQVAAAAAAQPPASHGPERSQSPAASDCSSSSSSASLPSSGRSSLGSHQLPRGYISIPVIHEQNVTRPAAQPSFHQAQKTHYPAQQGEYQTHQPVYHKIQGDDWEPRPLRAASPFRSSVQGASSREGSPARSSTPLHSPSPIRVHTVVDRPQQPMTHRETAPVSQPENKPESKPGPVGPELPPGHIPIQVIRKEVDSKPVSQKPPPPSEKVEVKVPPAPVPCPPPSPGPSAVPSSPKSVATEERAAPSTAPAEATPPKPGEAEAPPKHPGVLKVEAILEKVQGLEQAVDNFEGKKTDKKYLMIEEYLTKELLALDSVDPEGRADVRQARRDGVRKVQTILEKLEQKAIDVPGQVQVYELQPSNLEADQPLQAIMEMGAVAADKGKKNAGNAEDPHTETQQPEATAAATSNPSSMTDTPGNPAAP

This experiment concerns the target BAG3 (BCL-2-associated athanogene 3) (human (endogenous in HEK293T)) (UniProt O95817). As to the kind of experiment: affinity purification with mass spectrometry; endogenous BAG3 immunoprecipitated with anti-BAG3 antibody and Protein A/G magnetic beads from HEK293T lysate; cells treated with DMSO (basal) or 10 µM MG132 for 6 h; IgG IP (MG132_IgG) as control; label-free quantification, three biological replicates.

No constants are given. Whether binding was seen depends on the method and setting. Binding seen in cells or lysates may run through a third protein. These calls come from enrichment with a bait or labelling near it, and not all partners need be listed. Where a sequence is shown, tags or fusion partners need not be part of it.

B1: intron-binding spliceosomal protein AQR (protein, UniProt O60306 1-1485)
chain: MAAPAQPKKIVAPTVSQINAEFVTQLACKYWAPHIKKKSPFDIKVIEDIYEKEIVKSRFAIRKIMLLEFSQYLENYLWMNYSPEVSSKAYLMSICCMVNEKFRENVPAWEIFKKKPDHFPFFFKHILKAALAETDGEFSLHEQTVLLLFLDHCFNSLEVDLIRSQVQQLISLPMWMGLQLARLELELKKTPKLRKFWNLIKKNDEKMDPEAREQAYQERRFLSQLIQKFISVLKSVPLSEPVTMDKVHYCERFIELMIDLEALLPTRRWFNTILDDSHLLVHCYLSNLVRREEDGHLFSQLLDMLKFYTGFEINDQTGNALTENEMTTIHYDRITSLQRAAFAHFPELYDFALSNVAEVDTRESLVKFFGPLSSNTLHQVASYLCLLPTLPKNEDTTFDKEFLLELLVSRHERRISQIQQLNQMPLYPTEKIIWDENIVPTEYYSGEGCLALPKLNLQFLTLHDYLLRNFNLFRLESTYEIRQDIEDSVSRMKPWQSEYGGVVFGGWARMAQPIVAFTVVEVAKPNIGENWPTRVRADVTINLNVRDHIKDEWEGLRKHDVCFLITVRPTKPYGTKFDRRRPFIEQVGLVYVRGCEIQGMLDDKGRVIEDGPEPRPNLRGESRTFRVFLDPNQYQQDMTNTIQNGAEDVYETFNIIMRRKPKENNFKAVLETIRNLMNTDCVVPDWLHDIILGYGDPSSAHYSKMPNQIATLDFNDTFLSIEHLKASFPGHNVKVTVEDPALQIPPFRITFPVRSGKGKKRKDADVEDEDTEEAKTLIVEPHVIPNRGPYPYNQPKRNTIQFTHTQIEAIRAGMQPGLTMVVGPPGTGKTDVAVQIISNIYHNFPEQRTLIVTHSNQALNQLFEKIMALDIDERHLLRLGHGEEELETEKDFSRYGRVNYVLARRIELLEEVKRLQKSLGVPGDASYTCETAGYFFLYQVMSRWEEYISKVKNKGSTLPDVTEVSTFFPFHEYFANAPQPIFKGRSYEEDMEIAEGCFRHIKKIFTQLEEFRASELLRSGLDRSKYLLVKEAKIIAMTCTHAALKRHDLVKLGFKYDNILMEEAAQILEIETFIPLLLQNPQDGFSRLKRWIMIGDHHQLPPVIKNMAFQKYSNMEQSLFTRFVRVGVPTVDLDAQGRARASLCNLYNWRYKNLGNLPHVQLLPEFSTANAGLLYDFQLINVEDFQGVGESEPNPYFYQNLGEAEYVVALFMYMCLLGYPADKISILTTYNGQKHLIRDIINRRCGNNPLIGRPNKVTTVDRFQGQQNDYILLSLVRTRAVGHLRDVRRLVVAMSRARLGLYIFARVSLFQNCFELTPAFSQLTARPLHLHIIPTEPFPTTRKNGERPSHEVQIIKNMPQMANFVYNMYMHLIQTTHHYHQTLLQLPPAMVEEGEEVQNQETELETEEEAMTVQADIIPSPTDTSCRQETPAFQTDTTPSETGATSTPEAIPALSETTPTVVGAVSAPAEANTPQDATSAPEETK
For B1, the binding result is listed as “binds”.

B2: RBFOX2 (protein, UniProt O43251 1-390)
chain: MQNEPLTPGYHGFPARDSQGNQEPTTTPDAMVQPFTTIPFPPPPQNGIPTEYGVPHTQDYAGQTGEHNLTLYGSTQAHGEQSSNSPSTQNGSLTTEGGAQTDGQQSQTQSSENSESKSTPKRLHVSNIPFRFRDPDLRQMFGQFGKILDVEIIFNERGSKGFGFVTFENSADADRAREKLHGTVVEGRKIEVNNATARVMTNKKMVTPYANGWKLSPVVGAVYGPELYAASSFQADVSLGNDAAVPLSGRGGINTYIPLISLPLVPGFPYPTAATTAAAFRGAHLRGRGRTVYGAVRAVPPTAIPAYPGVVYQDGFYGADLYGGYAAYRYAQPATATAATAAAAAAAAYSDGYGRVYTADPYHALAPAASYGVGAVASLYRGGYSRFAPY
With B2, the binding result is “binds”.

B3: APRT (protein, UniProt P07741 1-180)
chain: MADSELQLVEQRIRSFPDFPTPGVVFRDISPVLKDPASFRAAIGLLARHLKATHGGRIDYIAGLDSRGFLFGPSLAQELGLGCVLIRKRGKLPGPTLWASYSLEYGKAELEIQKDALEPGQRVVVVDDLLATGGTMNAACELLGRLQAEVLECVSLVELTSLKGREKLAPVPFFSLLQYE
For the molecule B3, the binding result is on record as “binds”.

B4: GART (protein, UniProt P22102 1-1010)
chain: MAARVLIIGSGGREHTLAWKLAQSHHVKQVLVAPGNAGTACSEKISNTAISISDHTALAQFCKEKKIEFVVVGPEAPLAAGIVGNLRSAGVQCFGPTAEAAQLESSKRFAKEFMDRHGIPTAQWKAFTKPEEACSFILSADFPALVVKASGLAAGKGVIVAKSKEEACKAVQEIMQEKAFGAAGETIVIEELLDGEEVSCLCFTDGKTVAPMPPAQDHKRLLEGDGGPNTGGMGAYCPAPQVSNDLLLKIKDTVLQRTVDGMQQEGTPYTGILYAGIMLTKNGPKVLEFNCRFGDPECQVILPLLKSDLYEVIQSTLDGLLCTSLPVWLENHTALTVVMASKGYPGDYTKGVEITGFPEAQALGLEVFHAGTALKNGKVVTHGGRVLAVTAIRENLISALEEAKKGLAAIKFEGAIYRKDVGFRAIAFLQQPRSLTYKESGVDIAAGNMLVKKIQPLAKATSRSGCKVDLGGFAGLFDLKAAGFKDPLLASGTDGVGTKLKIAQLCNKHDTIGQDLVAMCVNDILAQGAEPLFFLDYFSCGKLDLSVTEAVVAGIAKACGKAGCALLGGETAEMPDMYPPGEYDLAGFAVGAMERDQKLPHLERITEGDVVVGIASSGLHSNGFSLVRKIVAKSSLQYSSPAPDGCGDQTLGDLLLTPTRIYSHSLLPVLRSGHVKAFAHITGGGLLENIPRVLPEKLGVDLDAQTWRIPRVFSWLQQEGHLSEEEMARTFNCGVGAVLVVSKEQTEQILRDIQQHKEEAWVIGSVVARAEGSPRVKVKNLIESMQINGSVLKNGSLTNHFSFEKKKARVAVLISGTGSNLQALIDSTREPNSSAQIDIVISNKAAVAGLDKAERAGIPTRVINHKLYKNRVEFDSAIDLVLEEFSIDIVCLAGFMRILSGPFVQKWNGKMLNIHPSLLPSFKGSNAHEQALETGVTVTGCTVHFVAEDVDAGQIILQEAVPVKRGDTVATLSERVKLAEHKIFPAALQLVASGTVQLGENGKICWVKEE
With B4, the binding entry was “binds”.

B5: Putative RNA-binding protein Luc7-like 2 (protein, UniProt Q9Y383 1-392)
chain: MSAQAQMRAMLDQLMGTSRDGDTTRQRIKFSDDRVCKSHLLNCCPHDVLSGTRMDLGECLKVHDLALRADYEIASKEQDFFFELDAMDHLQSFIADCDRRTEVAKKRLAETQEEISAEVAAKAERVHELNEEIGKLLAKVEQLGAEGNVEESQKVMDEVEKARAKKREAEEVYRNSMPASSFQQQKLRVCEVCSAYLGLHDNDRRLADHFGGKLHLGFIEIREKLEELKRVVAEKQEKRNQERLKRREEREREEREKLRRSRSHSKNPKRSRSREHRRHRSRSMSRERKRRTRSKSREKRHRHRSRSSSRSRSRSHQRSRHSSRDRSRERSKRRSSKERFRDQDLASCDRDRSSRDRSPRDRDRKDKKRSYESANGRSEDRRSSEEREAGEI
For B5, the binding entry is “binds”.
